Consider three molecules from article PMC12288466, “EzrA promotes Z-ring formation through interaction of its QNR motif with FtsA” (Journal of Bacteriology, 2025).

Sequences of proteins named here, by UniProt entry; tags and fusion partners are left off.
UniProt A0A0H3MTL7: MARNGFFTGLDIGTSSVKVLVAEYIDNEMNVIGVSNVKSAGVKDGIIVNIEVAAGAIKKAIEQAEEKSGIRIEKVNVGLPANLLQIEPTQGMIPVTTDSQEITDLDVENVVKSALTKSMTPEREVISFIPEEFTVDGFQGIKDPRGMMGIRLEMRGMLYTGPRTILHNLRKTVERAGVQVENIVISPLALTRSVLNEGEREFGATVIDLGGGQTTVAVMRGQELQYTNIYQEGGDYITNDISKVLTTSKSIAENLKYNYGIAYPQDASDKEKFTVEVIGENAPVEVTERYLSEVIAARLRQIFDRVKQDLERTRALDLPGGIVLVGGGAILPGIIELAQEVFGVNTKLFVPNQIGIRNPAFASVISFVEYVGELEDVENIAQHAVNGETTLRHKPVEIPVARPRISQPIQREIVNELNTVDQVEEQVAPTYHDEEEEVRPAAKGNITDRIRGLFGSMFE
UniProt A0A0H3MXZ7: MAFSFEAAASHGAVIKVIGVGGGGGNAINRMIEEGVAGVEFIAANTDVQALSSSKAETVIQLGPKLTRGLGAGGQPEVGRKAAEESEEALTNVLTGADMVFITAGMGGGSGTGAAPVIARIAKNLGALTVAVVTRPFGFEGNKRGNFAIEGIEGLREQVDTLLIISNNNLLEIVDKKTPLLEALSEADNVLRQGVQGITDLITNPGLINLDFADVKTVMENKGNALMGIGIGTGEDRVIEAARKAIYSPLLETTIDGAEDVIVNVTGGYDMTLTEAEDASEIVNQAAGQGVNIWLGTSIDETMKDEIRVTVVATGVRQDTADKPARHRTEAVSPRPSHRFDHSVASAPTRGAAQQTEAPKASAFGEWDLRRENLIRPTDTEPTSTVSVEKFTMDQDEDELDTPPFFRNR

Results are given in words; binding and its absence hold for the method and conditions named. Binding seen in cells or lysates may run through a third protein. A yes stands for co-enrichment or nearness to the bait. Other partners may have been found.

Experiment [1] deals with EzrA-3×FLAG (Streptococcus suis (strain SC19)) (UniProt A4VWI6). The experiment in a line: affinity purification with mass spectrometry; FLAG magnetic agarose on S. suis lysates (0.1 M Tris-HCl pH 7.5, 150 mM NaCl, 1% Triton X-100), 20 min at room temperature, without cross-linking; label-free quantification (MaxLFQ).
For experiment [2], the target named is EzrA^R514D-3×FLAG (Streptococcus suis (strain SC19)). The description is as above.

For FtsA (from UniProt A0A0H3MTL7 1-459), in experiment [1], the binding entry was “binds”.
Take FtsZ (from UniProt A0A0H3MXZ7 1-409): the binding result in experiment [1] is “binds”.

B1: SepF (protein, UniProt A4VTL1 1-187)
chain: MALKDTFKNLFNYFEVDEVNEVEEQADAYSMPNDRPKMRVANTTVAPVREQQPKVETRREARSESQLQRLHERQQELMTNNNEKEIVKTTIDIKFPKRYEDAPEMVNLLLDNASILIDFQYMSEQQARRCLDYLDGARSVLSGNLKKVSNTMWLLTPVNVTVNIEELRNAGTTTGVADSNFEFDIKR
As to B1, the binding result in experiment [1] and in experiment [2] was “binds” each time.
